From US11197812B2, “Cosmetic formulations for topical applications containing erythropoietin-derived molecules” (ASC REGENITY LTD., priority 2016, dated 2021)
Read-outs that look alike come from different tables or passages of the source. Not every detail of the peptide structures is certain; ends, links or a residue may be inferred. Some compounds share one wording; it may come from a single statement. Some ranges recur; such a range may be that of the whole group of compounds. Where no end group is shown, it is not given here.

Columns and labels:
[1] = tested on: UV light-induced erythema on skin of healthy subjects; assay: Erythema recovery assay (UVB light-induced erythema, doubled MED); assay type: in vivo, human; settings: 20 μl lotion on 1×1 cm^2 area, 6 hours after exposure, normalized redness
From the text: Another means of measuring the efficacy of tissue-protection exerted by any formulation is the speed of skin recovery from a UVB light-induced erythema such as common sunburns. Erythema are skin irritations with enhanced redness of the skin due to local hyperaemia (enhanced blood flow in superficial capillaries) that is associated with repair processes in the skin. The quicker the repair process is, the quicker the hyperaemia gets shut down and thus the quicker the skin redness gets reduced to normal levels. Accordingly, the redness can be measured as a proxy for the damage status of the skin.
In this assay, healthy subjects received the doubled minimal erythema dose (MED) on skin areas of about 1×1 cm^2 on the left arm. Beforehand, the MED was determined individually for each subject by exposing other skin areas to increasing intensities of UV light emitted by the UV6 lamp (280-360 nm) of the Waldmann UV 802 L device.
Immediately after exposure to the doubled MED the each 1×1 cm^2 area was treated with 20 μl of formulation or left untreated. The formulations used in these assay were dexpanthenol (5% mass/mass) or the tissue-protective peptides ([…], […], […], […], or […]) delivered by a lotion. Dexpanthenol, a provitamin of vitamin B5, is commonly used in both cosmetic skin care creams and medical skin treatments and also exerts a tissue-protective effect in skin. Thus it was chosen as a control reference treatment.
Before light double MED exposure and after 6 hours, skin redness in the exposed area was spectroscopically measured using the ‘chroma meter CR-400’ manufactured by Konica Minolta. Redness of every area in every subject 6 hours after the exposure was normalized to the redness of the same area before the exposure by division of measured redness values.
Red light absorption values were normalized to the value of the same skin area before UV light exposure by division. A normalized red light absorption value of 1 represents the skin state before UV light exposure. Reduction of the normalized red light absorption values towards 1 represents enhanced skin protection and recovery. Bars represent mean change and standard deviation of the mean change. Statistical analysis was performed in GraphPad Prism 7 using a one-way ANOVA. Significance levels are 0.05 (*) and 0.01 (**). Dexpanthenol (final 5% mass/mass) and the peptides were delivered by the iARP lotion.

skin = assay: Relative cosmetic relevance in over-all skin-protective activity; design: species or system human
[2] = tested on: severe acne on the face and neck; assay: Acne Trial 1 (single test person); assay type: in vivo, human
Description: The test person was a person with severe acne on the face and neck. They were treated for one week with a standard cosmetic formulation based on a control lipid (dexpanthenol/panthenol), but without a polypeptide according to the invention. […] Then a cosmetic formulation according to the invention was applied, but again without a polypeptide according to the invention. The formulation contained ceramides and lecithin instead of dexpanthanol, and amino acids such as L-arginine. […] The test person then was treated with a formulation of the invention now comprising “Peptide 0”. […] After 3 weeks the test person was treated with the same formulation but which now comprised “Peptide 4” instead of the reference polypeptide (“Peptide 0”).

[3] = tested on: persons suffering from acne; assay type: in vivo, human; settings: for antihistaminic properties: compared to Peptide 0
Description: Four test groups (corresponding to the “peptides, 0, 2, 3 and 4”) with each five persons (in total, 20 subjects) suffering from acne, were treated twice daily with a formulation of the invention (“iARP-lotion” with trigger factor complex) for one week. No undesirable or even pathological lesions in the relevant skin area of the test persons were observed.

[4] = tested on: facial skin of healthy subjects; assay: Cosmetic skin improvement assay (Canfield VISIA facial skin analysis); assay type: in vivo, human; settings: cream once a day, after one month, versus controls / dexpanthenol 5% / QEQLERALNSS formulation
From the text: In this assay the cosmetic facial skin appearance upon application of the formulations of this invention was monitored. For that purpose, the commercially available state-of-the-art facial skin imaging and data analysis platform, the Canfield Bio Visia™, was utilized, (see here: https://www.canfieldsci.com/imaging-systems/visia-complexion-analysis/). This platform provides the possibility of a i) highly standardized, ii) highly reproducible, iii) quantitative, iv) non-invasive, and vi) subject or tester bias-free skin quality analysis. It records several photos of the face from different angles and records absorption/reflection spectra (see figure: Canfield VISIA facial skin analysis platform). […] The in-built software standardizes every parameter by comparison to a large database of skin feature norms and returns a value in the range of 0%-to 100% to permit inter-individual subject comparison.
Healthy subjects received cosmetic creams with formulations of this invention or controls in a blinded manner, i.e. the subjects were unaware of the identity of the received cosmetic cream. Subjects were instructed to apply the cream once a day in the evening and on how much to apply. Subject skin quality was assessed before the start of the application and after one month (31±3 days). As a control, to account for seasonal and lifestyle change associated skin quality changes, quality of the hand exterior surface was monitored as well. The hypothetical option of using left and right side of the face for cosmetic treatment and internal control was not used to exclude subject compliance as a major confounder. […]
Since the data are paired (before application, after one month) for each subject and parameter, the difference (parameter value after 1 month-parameter value before application) permits intra-subject normalization and enables good inter-subject comparability. […] However, the advanced peptide-delivery formulations of this inventions performed better in improving the measured skin parameters, such as spots, wrinkles and smoothness (see figure). […]

[5] = count among 5 subjects tested, lotion twice daily for one week
[6] = share among 5 subjects tested (Table 4)

| Sequence | double MED-induced skin redness (erythema) [1] | relative cosmetic relevance in over-all skin-protective activity (rank order) (skin) | Fresh and younger appearance clearly claimed after use ([3]; count among 5 subjects tested) | Less pick spots/lesions/pimple clearly claimed after use ([3]; count among 5 subjects tested) | Less spots/lesions/blackhead clearly claimed after use ([3]; count among 5 subjects tested) | Product consistency exactly right ([3]; count among 5 subjects tested) | Product use clearly improved skin structure ([3]; count among 5 subjects tested) | Product use clearly refined skin texture ([3]; count among 5 subjects tested) | Product use obviously refined pores ([3]; count among 5 subjects tested) | Skin quality claimed to be clearly improved after use ([3]; count among 5 subjects tested) | Visable improvement of dryness [3, 5] | Visable improvement of redness [3, 5] | antihistaminic properties ([3]; identical formulations) | Product consistency exactly right [3, 6] | Visable improvement of itching [3, 6] | improvement of measured skin parameters (spots, wrinkles, smoothness) [4] | other results |
| --- | --- | --- | --- | --- | --- | --- | --- | --- | --- | --- | --- | --- | --- | --- | --- | --- | --- |
| QEQLERALNSS [Peptide 0, reference compound] | limited the erythema more efficiently than dexpanthenol | EPO<EPO fragments 1-3<Peptide 0, 1<Peptide 3<Peptide 2<Peptide 4 | 2x | 2x | 2x | 4x | 2x | 2x | 2x | 3x | 4x | 1x | without any effect shown | 80% | 0% |  | change of acne ([2]; at week 3): slight but visible reduction of acne; change of acne ([2]; further treatment after week 3): no further improvement was detectable; Visable improvement of wrinkles [3, 5]: 1x |
| QDQLERALNTS [Peptide 4] | performed even better than the formulations with the previously described QEQLERALNSS peptide | EPO<EPO fragments 1-3<Peptide 0, 1<Peptide 3<Peptide 2<Peptide 4 | 0x | 0x | 0x | 5x | 0x | 0x | 0x | 1x | 1x | 1x |  | 100% | 0% | performed even better than the formulations with the previously described QEQLERALNSS peptide | change of acne ([2]; after 8 weeks treatment): completely reversed; change of acne ([2]; after one week of treatment with the respective formulation): significant improvement; physicochemical impact on the formulation ([3]; identical formulations): stabilizes the formulation and consistency |
| QDQLERALNST [Peptide 3] | performed even better than the formulations with the previously described QEQLERALNSS peptide | EPO<EPO fragments 1-3<Peptide 0, 1<Peptide 3<Peptide 2<Peptide 4 | 2x | 1x | 1x | 4x | 1x | 1x | 1x | 1x | 2x | 1x | improved antihistaminic properties | 80% | 40% | performed even better than the formulations with the previously described QEQLERALNSS peptide | Visable improvement of itching [3, 5]: 2x |
| NEQLERALNTS [Peptide 2] | performed even better than the formulations with the previously described QEQLERALNSS peptide | EPO<EPO fragments 1-3<Peptide 0, 1<Peptide 3<Peptide 2<Peptide 4 | 1x | 1x | 1x | 4x | 2x | 2x | 2x | 2x | 3x | 1x |  | 80% | 0% | performed even better than the formulations with the previously described QEQLERALNSS peptide |  |
